In PubChem BioAssay AID2685 (National Center for Advancing Translational Sciences (NCATS), 2010) one finds cell number change and AC50 data, which are given here for 60 compounds.

The assay can be described thus: qHTS Assay for Lipid Storage Modulators in Drosophila S3 Cells.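 As to cell number change: cells counted by Cell Tracker Red CMTPX staining in the red channel.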 To be noted: BODIPY lipid droplet fluorescence, 18-24 h; for cell number change: measured here: cell count max response, cells fed with added oleic acid. The gist of the method: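 Laser-scanning cytometry quantifies lipid droplet accumulation (500–530 nm total intensity; droplet/cell object ratio) in oleic acid-fed (400 uM added) Drosophila S3 cells treated with a concentration series. 20 uM Triacsin C defined 100% inhibition.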
A general note: In qHTS, concentration-response curves come from the screen itself.

The mark [1] stands for this setting: measured here: lipid fluorescence (Fed channel) AC50, cells fed with added oleic acid.
The mark [2] stands for this setting: measured here: cell number channel AC50, cells fed with added oleic acid.

The list shows a part of the results. Further columns of the screen follow, without active or inactive calls. Compounds called inactive in the main read-out are mostly missing here. The note in brackets gives the kind of curve behind each potency; many fits are weak.

Turning to `Cc1ccc2[nH]c(=O)c(CN(C(=O)c3cccs3)c3ccccc3)cc2c1`, the cell number change turned out to be 7.68%. In addition, the AC50 under setting [1] is 2.59 µM [rising, single point].

Regarding `COC(=O)c1cn(C)c2ccc(S(=O)(=O)N3CCOCC3)cc2c1=O`, the cell number change is 12.4%.

As for `CCCOc1ccc(C(=O)CCC(=O)OCC(=O)Nc2cccc(S(N)(=O)=O)c2)cc1`, the cell number change was found to be 12%.

As for `Cc1ccc(-c2c(C(=O)NCc3ccc(F)cc3)oc(=O)c3ccccc23)cc1`, the cell number change was 25.9%.

Take `Cc1ccc(C(=O)O/N=C(\N)c2cccnc2)cc1[N+](=O)[O-]`: the cell number change was 26.6%. The concentration at half-maximal activity (AC50) under setting [2] was 1.46 µM [falling, full curve]. The AC50 under setting [1] is 4.61 µM [rising, partial curve, poor fit].

Regarding `CC(C)c1ccc(Nc2cnn(C34CC5CC(CC(CC(=O)O)(C5)C3)C4)c(=O)c2Cl)cc1`, the cell number change was -33.4%. In addition, the AC50 under setting [2] is 3.66 µM [falling, full curve]. Moreover, the AC50 under setting [1] was 29.1 µM [falling, single point].

For the compound `Cc1cc(C(=O)N(C)Cc2c(F)cccc2Cl)c2ccccc2n1`, the concentration at half-maximal activity (AC50) under setting [1] was 4.11 µM [falling, partial curve].

As to `O=C(COc1ncnc2scc(-c3ccccc3)c12)NCCN1C(=O)CSC1=O`, under setting [1], the AC50 is 5.17 µM [falling, single point].

Turning to `CCOC(=O)c1ccc(CNC(=O)Cn2nnc(-c3ccc(C)cc3)n2)o1`, the cell number change is -10.7%. Further, the AC50 under setting [1] is 1.64 µM [falling, partial curve].

As for `Cc1cc(NC(=O)CCC(=O)N(CC(=O)NC2CCCC2)Cc2ccccc2Cl)no1`, the cell number change is -3.53%. In addition, under setting [1], the AC50 is 18.4 µM [rising, single point].

Consider `CS(=O)(=O)Nc1ccc(C(=O)NCCSCc2ccco2)cc1`, for which the concentration at half-maximal activity (AC50) under setting [1] was 0.0058 µM [falling, full curve, poor fit].

As to `CCSCc1nnc(SCC(=O)c2ccc(OC)cc2)n1C`, the cell number change was -0.906%. For the same compound, the AC50 under setting [1] was 5.8 µM [falling, single point].

On to `CCN(c1ccccc1)S(=O)(=O)c1ccc2c(c1)CCCN2C(C)=O`, for which the cell number change amounted to 3.23%. Moreover, the half-maximal activity concentration (AC50) under setting [1] was 0.651 µM [falling, single point].

As to `CC(=O)c1ccccc1OC(=O)COc1ccc(Cl)cc1C`, the cell number change is -8.51%.

As for `O=C(O)CCC(NC(=O)c1cncc(O)c1)C(=O)O` (stereo not drawn), the cell number change was -51.3%. In addition, the half-maximal activity concentration (AC50) under setting [2] was 2.06 µM [falling, full curve]. Further, the AC50 under setting [1] was 5.8 µM [falling, full curve].

As to `O=c1[nH]cnc2sc3c(c12)CCCCC3`, the cell number change was -38.4%. In addition, the AC50 under setting [2] was 1.84 µM [falling, full curve].

As to `COc1ccccc1N1CCN(C(=O)C(=O)c2cn(CC(=O)N3CCCCCC3)c3ccccc23)CC1`, the AC50 under setting [1] is 14.6 µM [falling, partial curve].

As to `O=C(COC(=O)c1ccc(Br)o1)NCc1ccc(F)cc1`, the cell number change worked out at 5%. In addition, the AC50 under setting [1] was 0.0326 µM [rising, full curve, poor fit].

Turning to `COc1ccc(C(=O)C2CCCN(Cc3cccn3-c3nccs3)C2)cc1OC` (stereo not drawn), the half-maximal activity concentration (AC50) under setting [1] was 8.2 µM [rising, partial curve].

`Cc1cccc(NC(=O)c2nc[nH]c2C(=O)N[C@H](C)c2ccccc2)c1`: the cell number change was -45.1%. In addition, the AC50 under setting [2] is 0.116 µM [falling, full curve, poor fit].

In the case of `N#Cc1ccccc1Sc1ccccc1C(=O)OCc1nnc(-c2ccccc2)o1`, the cell number change is -65.5%. Moreover, the AC50 under setting [2] is 29.1 µM [falling, single point]. In addition, the half-maximal activity concentration (AC50) under setting [1] was 29.1 µM [falling, single point].

Turning to `CSc1nc(N)nc(SCC(=O)Nc2cccc(F)c2)c1C#N`, the cell number change is -34.2%. Also, the concentration at half-maximal activity (AC50) under setting [2] was 25.9 µM [falling, partial curve, poor fit]. In addition, under setting [1], the half-maximal activity concentration (AC50) is 20.6 µM [falling, partial curve].

In the case of `CCOC(=O)c1c(C)[nH]c(C(=O)Cn2c(=O)oc3ccccc32)c1C`, the half-maximal activity concentration (AC50) under setting [1] was 4.61 µM [rising, single point].

On to `CC(C)(C)c1ccc(OC2=CS(=O)(=O)c3ccccc32)cc1`, for which the cell number change is -29.7%. The AC50 under setting [1] is 29.1 µM [rising, single point].

For `O=S(=O)(Nc1nc2ccccc2nc1N1CCN(CCO)CC1)c1cc(F)ccc1F`, the cell number change is 9.16%. The half-maximal activity concentration (AC50) under setting [1] was 29.1 µM [rising, single point].

As to `COc1ccc(Nc2nc(C)nc3sc4c(c23)CCC4)cc1O`, the AC50 is 0.651 µM [rising, single point] under setting [2] and 0.58 µM [rising, single point] under setting [1].

For the compound `Cc1ccc(-n2c(SCC(=O)Nc3cc(C)on3)nc3ccccc3c2=O)cc1`, the cell number change was 49.1%. The AC50 under setting [2] is 0.082 µM [rising, full curve, poor fit]. The AC50 under setting [1] is 0.0731 µM [rising, full curve].

In the case of `CCN(CC)C(=O)CNC(=O)Cc1ccc(Cl)cc1`, the cell number change is -4.72%. For the same compound, under setting [1], the AC50 was 29.1 µM [falling, single point].

Regarding `CCOC(=O)c1c(N)n(C2CC(C)(C)NC(C)(C)C2)c2nc3ccccc3nc12`, the cell number change worked out at 11.4%. For the same compound, the concentration at half-maximal activity (AC50) under setting [1] was 0.13 µM [falling, full curve, poor fit].

For the compound `C=CCn1c(SCc2cccc3ccccc23)nnc1-c1cccnc1`, the cell number change was -32.8%. Further, under setting [2], the concentration at half-maximal activity (AC50) was 23.1 µM [falling, single point]. Besides, the half-maximal activity concentration (AC50) under setting [1] was 29.1 µM [falling, single point].

For the compound `COc1ccccc1-n1nnnc1SCc1ccccc1`, the AC50 is, setting by setting: under setting [2], 6.51 µM [rising, single point]; under setting [1], 6.51 µM [rising, single point].

As for `O=C(CCn1cnnn1)N1CCCC(Nc2ccc(F)cc2)C1` (stereo not drawn), the concentration at half-maximal activity (AC50) under setting [1] is 29.1 µM [rising, single point].

Consider `O=c1cc(/C=C/c2ccccc2)oc2ccccc12`, for which the cell number change came to 140%. The AC50 under setting [2] is 6.51 µM [rising, full curve]. The AC50 under setting [1] is 9.2 µM [rising, partial curve].

For `Cc1cc(C)nc(NS(=O)(=O)c2ccc(NC(=O)Cn3c(=O)oc4ccccc43)cc2)n1`, the cell number change was -17.5%. Further, the AC50 under setting [1] is 6.51 µM [rising, full curve].

For the compound `COc1cc2[nH]c(=S)n(CC3CCCO3)c(=O)c2cc1OC` (stereo not drawn), the cell number change amounted to 3.2%. Moreover, the AC50 under setting [1] was 0.411 µM [rising, full curve].

For `COCCn1c(SCc2ccccc2Cl)nc2c1c(=O)[nH]c(=O)n2C`, the cell number change is -20.8%.

For `O=C(NCC1CCCO1)c1csc2c1CCCC2` (stereo not drawn), the cell number change was -41.1%.

`CN(C)CCN(Cc1ccco1)C(=O)c1cc2c(Cl)nc3ccccc3c2s1`: the concentration at half-maximal activity (AC50) under setting [1] was 1.64 µM [rising, partial curve].

As to `Cc1ccc(NC(=O)COn2nnc3ccc(S(=O)(=O)N(C)C)cc32)cc1F`, the cell number change was 48.4%. The AC50 under setting [2] was 2.59 µM [rising, full curve]. In addition, under setting [1], the half-maximal activity concentration (AC50) was 2.91 µM [rising, partial curve].

In the case of `C1=C(c2ccccc2)Nc2ccccc2N=C1c1ccccc1`, the cell number change was 22.4%. Moreover, the AC50 under setting [1] was 2.91 µM [rising, full curve].

Take `COc1ccc(N2CCN(C(=O)C3(S(=O)(=O)c4ccc(C)cc4)CC3)CC2)cc1`: the cell number change is -10.5%.

With `O=C(CN1C(=O)NC2(CCCCC2)C1=O)Nc1ccc(Cl)c(S(=O)(=O)N2CCOCC2)c1`, the cell number change is -19.7%. The half-maximal activity concentration (AC50) under setting [1] is 29.1 µM [falling, single point].

As for `Cn1cc(S(=O)(=O)N2CCC3(CC2)OCCO3)c(=O)n(C)c1=O`, the cell number change was determined as 17.7%. Also, the half-maximal activity concentration (AC50) under setting [1] is 0.00651 µM [rising, full curve, poor fit].

Turning to `COc1cc(/C=C/C(=O)Nc2cccc(S(=O)(=O)NC3=NCCCCC3)c2)ccc1OCC#N`, the cell number change was determined as 32.5%. For the same compound, the AC50 under setting [2] was 29.1 µM [rising, single point].

For `COc1cc(/C=C2\C(=N)N3N=CSC3=NC2=O)ccc1OS(=O)(=O)c1ccccc1`, the AC50 under setting [1] is 6.51 µM [falling, partial curve].

Consider `CC(Sc1nc(-c2ccccc2)cc(=O)[nH]1)C(=O)O` (stereo not drawn), for which the cell number change was -12%.

For the compound `C=CCn1c(SCC(O)Cn2c3ccccc3c3ccccc32)nnc1-c1ccco1` (stereo not drawn), the cell number change is -6.72%. Under setting [2], the concentration at half-maximal activity (AC50) was 4.11 µM [rising, single point]. Moreover, under setting [1], the AC50 is 2.59 µM [rising, single point].

Regarding `Cc1cccc(OCC(=O)N(C)CCc2ccccn2)c1`, the concentration at half-maximal activity (AC50) under setting [1] was 18.4 µM [rising, partial curve].

Turning to `COC(=O)CN1C(C)=Nc2ccc(Br)cc2C1c1ccccc1` (stereo not drawn), under setting [1], the concentration at half-maximal activity (AC50) is 2.31 µM [falling, partial curve].

Regarding `CC(=O)N1CCN(S(=O)(=O)c2cccc(C(=O)Nc3ccccc3N3CCCCC3)c2)CC1`, the concentration at half-maximal activity (AC50) under setting [2] is 2.06 µM [rising, single point].

Consider `COc1ccc(N=C(NN)c2ccc3ccccc3n2)cc1`, for which the cell number change came to 16.7%. Besides, the half-maximal activity concentration (AC50) under setting [1] was 6.51 µM [rising, partial curve].

For the compound `C[C@@H]1CCC2[C@](C)(CO)[C@@H](O)CC[C@]2(C)[C@@]12CC[C@@](CO)(CC(=O)O)O2` (stereo partly drawn), the cell number change is -22.4%. In addition, the AC50 under setting [1] is 11.6 µM [falling, partial curve].

As to `O=C(NC(=S)Nc1ccccc1N1CCN(C(=O)c2ccccc2)CC1)c1ccccc1F`, the cell number change was -1.47%.

`COc1ccc(CC(=O)OCN2C(=O)c3ccccc3C2=O)cc1`: the cell number change is 5.67%.

As for `Cn1c(SCC(=O)N2CCCC2=O)nnc1-c1ccccc1F`, the cell number change was -30.1%. Moreover, under setting [2], the half-maximal activity concentration (AC50) is 0.326 µM [falling, partial curve].

With `CCOC(=O)CCc1c(C)c2ccc(OCc3cc([N+](=O)[O-])ccc3OC)c(C)c2oc1=O`, the concentration at half-maximal activity (AC50) reads like this: under setting [2], 0.058 µM [rising, full curve, poor fit]; under setting [1], 0.116 µM [rising, full curve, poor fit].

Regarding `Cc1cc(C)cc(OCC(=O)O/N=C(\N)c2ccccn2)c1`, the cell number change is 42.8%. The concentration at half-maximal activity (AC50) under setting [2] was 3.26 µM [rising, partial curve]. Besides, under setting [1], the concentration at half-maximal activity (AC50) is 6.51 µM [rising, single point].

Turning to `O=C(COC(=O)Cc1ccccc1F)Nc1ccc2c(c1)OCCO2`, the cell number change is 34.5%. For the same compound, under setting [2], the AC50 is 1.84 µM [rising, partial curve].

Take `O=C1NN(c2ccc(Cl)c(Cl)c2)C(=O)/C1=C/c1cccc(OC(=O)c2cccs2)c1`: the AC50 under setting [1] was 18.4 µM [falling, partial curve].

With `Cc1nn(-c2ccccc2)c(Cl)c1/C=N/NC(=O)CNC(=O)c1ccccc1Cl`, the cell number change came to 0.321%. Besides, the concentration at half-maximal activity (AC50) under setting [1] is 5.17 µM [falling, partial curve].

What is called AC50 is the concentration at which the activity in the assay is half-maximal. Read a low AC50 as greater potency.
